This test can be described thus: qHTS Assay for Lipid Storage Modulators in Drosophila S3 Cells.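 As to cell number change: cells counted by Cell Tracker Red CMTPX staining in the red channel.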 The conditions noted are these: BODIPY lipid droplet fluorescence, 18-24 h; for cell number change: measured here: cell count max response, cells fed with added oleic acid. In a few lines: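 Drosophila S3 cells got compounds at several concentrations plus oleic acid (400 uM solution). Laser-scanning cytometry with 488 nm excitation read lipid droplets at 500-530 nm and cells at 575-640 nm. Percent activity was relative to 20 uM Triacsin C.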
(In general: qHTS replaces the single test concentration by a dilution series.)

Where [1] appears, read: measured here: cell number channel AC50, cells fed with added oleic acid.
[2] abbreviates: measured here: lipid fluorescence (Fed channel) AC50, cells fed with added oleic acid.

Some of the results follow. Further columns of the screen follow, without active or inactive calls. Most of these compounds were active or inconclusive in the main read-out, so they are no random draw. Potencies come from curve fits of mixed quality, noted in brackets.

In general, AC50 refers to the concentration at which the activity in the assay is half-maximal. A higher AC50 goes with weaker potency.

On to `N#CC1=C(N)NC(SCC(=O)c2ccc(Br)cc2)=C(C#N)C12CCCCC2`, for which the cell number change is 39.9%. Besides, the AC50 under setting [1] was 0.92 µM [rising, partial curve]. Also, the AC50 under setting [2] was 1.16 µM [rising, partial curve].
As to `COc1ccc(S(=O)(=O)Nc2ccccc2C(=O)N2CCOCC2)cc1Cl`, the cell number change was -33.7%. Further, under setting [1], the half-maximal activity concentration (AC50) was 18.4 µM [falling, single point]. The AC50 under setting [2] is 10.3 µM [falling, partial curve, poor fit].
On to `COCCn1nnnc1C(c1ccccn1)N1CCN(c2cc(Cl)ccc2C)CC1` (configuration not stated), for which the cell number change is 13.1%. Besides, the AC50 under setting [2] is 6.51 µM [rising, single point].
For `O=C(O)C1CCC(=O)N1C1c2ccccc2Oc2ccccc21` (configuration not stated), the cell number change amounted to 14.3%. Moreover, the AC50 under setting [2] was 0.00461 µM [falling, full curve, poor fit].
With `CCCS(=O)(=O)c1nc(S(=O)(=O)c2ccc(C)cc2)c(N2CC(C)OC(C)C2)s1` (configuration not stated), the AC50 under setting [2] was 4.11 µM [falling, partial curve].
Regarding `O=C(NC(Cc1ccccc1)C(=O)O)/C(=C/c1ccccc1)NC(=O)c1ccco1` (configuration not stated), the cell number change was 4.35%. Further, under setting [2], the AC50 is 0.58 µM [falling, single point].
In the case of `c1csc(-c2cn3ccc4ccccc4c3n2)c1`, the cell number change was -10.1%. Further, under setting [2], the AC50 is 2.91 µM [falling, partial curve].
As for `CCCNC(=O)NS(=O)(=O)c1cnccc1Sc1ccc(Cl)cc1`, the cell number change was -26.8%. Besides, the AC50 under setting [2] is 11.6 µM [falling, partial curve].
As to `Cc1cc(NC(=O)CCSc2ccccc2)ccc1Br`, the cell number change is -32.9%. Also, the AC50 under setting [1] was 29.1 µM [falling, single point].
With `O=C1CCN=C(Nc2ccc(F)cc2)N1Cc1ccccc1`, the cell number change was -2.06%. The AC50 under setting [1] is 5.17 µM [rising, single point]. Under setting [2], the AC50 is 0.00411 µM [rising, full curve, poor fit].
`CCOC(=O)c1cccnc1SCC(=O)N(CC)c1cccc(C)c1`: the cell number change amounted to 9.68%. Under setting [2], the AC50 is 18.4 µM [rising, partial curve].
With `O=C(/C=C/c1ccc(S(=O)(=O)N2CCOCC2)cc1)NCc1ccc(Cl)cc1`, the cell number change is -11.3%. The AC50 under setting [2] is 0.731 µM [falling, full curve, poor fit].
As for `COc1ccc(C(=O)Nn2c(SCC(=O)NCC3CCCO3)nc3ccccc3c2=O)cc1` (configuration not stated), the cell number change came to 64.9%. For the same molecule, the AC50 under setting [1] is 8.2 µM [rising, partial curve].
In the case of `O=C(NCc1ccccc1)/C(=C/c1ccccc1)NC(=O)c1ccco1`, the cell number change was -7.83%.
Same read-out and setting: the value for `Cc1cccc(CCNC(=O)c2oc3c(C)c(C)ccc3c2C)n1` was 2.48%.
`Cc1cc(C)nc(CC(N)=O)n1`: the cell number change is -37.6%. Moreover, the AC50 under setting [1] was 0.082 µM [falling, full curve, poor fit].
For the molecule `O=C(c1cnccn1)N1CCCC(N2CCN(c3cccc(Cl)c3)CC2)C1` (configuration not stated), the cell number change stood at 35.5%. Besides, the half-maximal activity concentration (AC50) under setting [1] is 10.3 µM [rising, partial curve, poor fit].
Regarding `CCc1cc[n+](CC(=O)Nc2ccc(Cl)cc2Cl)cc1`, the cell number change is -74%. Also, the AC50 under setting [1] was 7.31 µM [falling, partial curve]. Besides, under setting [2], the concentration at half-maximal activity (AC50) was 7.31 µM [falling, partial curve].
Turning to `COc1ccc(NC(=S)N(CCCN2CCOCC2)Cc2cn(C)c3ccccc23)cc1OC`, the cell number change worked out at 16.1%. Under setting [2], the AC50 is 1.46 µM [rising, partial curve].
Regarding `COc1cccc(-c2nn(C)c3sc(C(=O)N4CCOCC4)cc23)c1`, the cell number change was -18.7%. Also, under setting [2], the AC50 was 3.26 µM [falling, partial curve].
As for `O=C(O)c1ccc(-c2ccc(OS(=O)(=O)c3ccccc3F)cc2)cc1`, the cell number change is 0.833%.
Take `Cc1nc(SCC(=O)N2CCC(Cc3ccccc3)CC2)[nH]c(=O)c1C`: the cell number change was 26.5%. The AC50 under setting [2] was 14.6 µM [rising, partial curve].
Turning to `COc1ccc(-c2ccc(C3C(C#N)=C(N)Oc4n[nH]c(C)c43)o2)cc1` (configuration not stated), the cell number change is -23.3%. Further, the AC50 under setting [2] was 13 µM [falling, partial curve, poor fit].
As for `O=C(CSc1cccc2cccnc12)N/N=C/c1ccc(O)cc1`, the cell number change came to 3.87%. The AC50 under setting [2] was 29.1 µM [falling, single point].
As for `O=C(NC1c2ccccc2-c2ccccc21)N1CCCCC1`, the cell number change was found to be 36.2%. Further, the AC50 under setting [1] was 29.1 µM [rising, single point].
For the molecule `C[n+]1cnn2c1SCC1(COC1)C2`, the cell number change was -25.1%. Further, the AC50 under setting [1] is 0.291 µM [falling, full curve, poor fit]. Further, under setting [2], the half-maximal activity concentration (AC50) was 4.11 µM [falling, full curve, poor fit].
Consider `S=c1nc(NCc2cccc(Cl)c2)c2ccccc2[nH]1`, for which the cell number change amounted to 7.04%. Also, the half-maximal activity concentration (AC50) under setting [2] was 29.1 µM [rising, single point].
With `COc1ccc(C(=O)NCc2nnc(SCC(=O)Nc3ccccc3OC)o2)cc1`, the cell number change stood at 39.9%. Further, the AC50 under setting [1] is 0.0291 µM [rising, full curve].
For `COc1cccc(NC(=O)CCC(=O)NCc2ccco2)c1`, the cell number change was -73.3%. Under setting [1], the AC50 is 9.2 µM [falling, partial curve]. In addition, the AC50 under setting [2] is 23.1 µM [falling, partial curve].
Consider `Cc1ccc(-c2nn(-c3ccccn3)c(=O)c3ccccc23)cc1C`, for which the cell number change is 3.95%. Besides, the AC50 under setting [2] is 0.82 µM [rising, single point].
On to `COc1cc(OC)cc(C(=O)N[C@H](C(=O)OCC(=O)NC(C)c2ccccc2)C(C)C)c1` (some centres not stated), for which the cell number change is -15.4%. Also, the AC50 under setting [2] is 29.1 µM [falling, single point].
`COCCNC(=S)NNC(=O)c1cccs1`: the cell number change worked out at 16.9%. Under setting [2], the AC50 is 6.51 µM [falling, single point].
For the molecule `CC(OC(=O)CCN=C1NS(=O)(=O)c2ccccc21)C(=O)c1ccccc1` (configuration not stated), the cell number change was -9.24%.
Same read-out and setting: the value for `Cc1cccc(OC(C)C(=O)Nc2ccc(N3CCCCC3)cc2)c1` (configuration not stated) was 4.82%; that for `Cn1cnnc1SCC(=O)N1N=C2/C(=C/c3ccco3)CCCC2C1c1ccco1` (configuration not stated) was -28.8%.
`Cc1ccc(N2C(=O)CS/C2=C(\C(Cl)=C(Cl)Cl)[N+](=O)[O-])cc1`: the cell number change stood at 140%. The AC50 under setting [1] is 29.1 µM [rising, single point]. The AC50 under setting [2] was 20.6 µM [falling, partial curve].
`O=C(COc1ccc2c3c(c(=O)oc2c1)CCCC3)NCc1ccccn1`: the cell number change was -7.37%. Under setting [1], the AC50 is 6.51 µM [falling, single point].
Take `OCC#CCSc1nnc(-c2ccccc2Br)o1`: the cell number change came out at 67%. Further, the half-maximal activity concentration (AC50) under setting [1] is 29.1 µM [rising, single point].
For the molecule `Cc1cc(C(=O)N2CCCC(N3CCN(c4ccccc4C)CC3)C2)nc(C)n1` (configuration not stated), the AC50 under setting [2] was 29.1 µM [rising, single point].

The record behind these values is PubChem BioAssay AID2685 (National Center for Advancing Translational Sciences (NCATS), 2010).
